PubChem BioAssay AID504791 | Drosophila RNAi Screening Center, 2011

Assay: 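Genes of the fly required for silencing by miRNA, siRNA or endo-siRNA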 (primary screen)
System: Drosophila S2-derived reporter cells
Reagent: long dsRNA against Drosophila genes, about 150-250 ng dsRNA per well (siRNA assay); about 80-120 ng (miRNA assay)
Duration: about 5 days (siRNA assay); about 4 days (miRNA assay)
Treatment: copper sulfate induction of reporters: 25 µM (siRNA assay); 200 mM stated (miRNA assay), 1-2 days before reading
Read-out: 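Per-well ratio of Renilla over firefly light, expressed relative to that plate's average ratio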
Active means: 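First-pass picks had plate-scaled ratios over 1.5 for the siRNA assay, over 1.6 for the miRNA assay, or under 0.6; two distinct dsRNAs had to score alike on retest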
The deposit covers about 23,000 reagents; this is an unselected part of those with a known target gene and a result. Of all reagents, 199 (0.86%) are marked active. 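Plate-scaled ratios behind the calls are not deposited; printed light signals are raw; many rows marked increased or decreased are still called inactive.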 Names joined by + are all predicted targets of the reagent. Reagent sequences are not shown. Not given: the direction of the score.

| predicted target | amplicon | stable assay Renilla, run 1 (luminescence) | stable assay firefly, run 1 (luminescence) | Outcome |
| --- | --- | --- | --- | --- |
| RpS18 (Ribosomal protein S18) | DRSC07540 | 6403 | 2.61e5 | inactive |
| cyp33 (cyclophilin-33) | DRSC07600 | 13136 | 5.51e5 | inactive |
| regucalcin | DRSC18908 | 5842 | 3.20e5 | inactive |
| regucalcin | DRSC20366 | 6483 | 4.90e5 | inactive |
| CG13692 | DRSC00361 | 7726 | 4.38e5 | inactive |
| CG10405 | DRSC14238 | 7256 | 3.97e5 | inactive |
| pirk (poor Imd response upon knock-in) | DRSC04269 | 8578 | 4.52e5 | inactive |
| FipoQ (F-box involved in polyQ pathogenesis) | DRSC15413 | 6998 | 4.19e5 | inactive |
| mir-210 (retired record) | DRSC19230 | 4975 | 3.60e5 | inactive |
| CG2082 | DRSC12125 | 7498 | 3.48e5 | inactive |
| Or63a (Odorant receptor 63a) | DRSC08681 | 6355 | 3.42e5 | inactive |

Next part, starting with the last 4 of the part before.
| predicted target | amplicon | stable assay Renilla, run 1 (luminescence) | stable assay firefly, run 1 (luminescence) | Outcome |
| --- | --- | --- | --- | --- |
| FipoQ (F-box involved in polyQ pathogenesis) | DRSC15413 | 6998 | 4.19e5 | inactive |
| mir-210 (retired record) | DRSC19230 | 4975 | 3.60e5 | inactive |
| CG2082 | DRSC12125 | 7498 | 3.48e5 | inactive |
| Or63a (Odorant receptor 63a) | DRSC08681 | 6355 | 3.42e5 | inactive |
| Cyp4p2 (Cytochrome P450 4p2) | DRSC07373 | 8731 | 5.65e5 | inactive |
| E(spl)malpha-BFM (Enhancer of split malpha, Bearded family member) | DRSC16994 | 5847 | 2.81e5 | inactive |
| pwn (pawn) | DRSC06035 | 4032 | 3.23e5 | inactive |
| mib2 (mind bomb 2) | DRSC02623 | 12817 | 1.52e6 | inactive |
| Ir52d (Ionotropic receptor 52d) | DRSC06264 | 6690 | 4.30e5 | inactive |
| CG11263 | DRSC09832 | 5951 | 4.09e5 | inactive |
| CG42304 + Snup | DRSC08276 | 10072 | 4.72e5 | inactive |
| CG42304 + Snup | DRSC08277 | 5151 | 3.11e5 | inactive |
| CG42304 + Snup | DRSC22781 | 4500 | 4.26e5 | inactive |
| CG44837 | DRSC10133 | 5103 | 2.32e5 | inactive |
| CG44837 | DRSC10558 | 5715 | 2.95e5 | inactive |
| Sod3 (Superoxide dismutase 3) | DRSC07324 | 6959 | 3.71e5 | inactive |
| raskol | DRSC19202 | 4812 | 3.45e5 | inactive |
| raskol | DRSC19731 | 5894 | 5.34e5 | inactive |
| raskol | DRSC19964 | 6283 | 5.49e5 | inactive |
| raskol | DRSC19967 | 3979 | 2.65e5 | inactive |
| raskol | DRSC21788 | 9463 | 4.54e5 | inactive |
| CG30339 | DRSC05168 | 5295 | 3.50e5 | inactive |
| CG5002 | DRSC06911 | 11935 | 6.44e5 | inactive |
| l(2)09851 (lethal (2) 09851) | DRSC04858 | 6663 | 4.00e5 | inactive |
| CG7202 | DRSC11818 | 6742 | 4.37e5 | inactive |
| eIF3f1 (eukaryotic translation initiation factor 3 subunit f1) | DRSC12328 | 5916 | 3.29e5 | inactive |
| dpr19 (defective proboscis extension response 19) | DRSC02237 | 6872 | 3.45e5 | inactive |
